In patent publication US9066923B2, “Methods for Alzheimer's disease treatment and cognitive enhancement” (Blanchette Rockefeller Neurosciences Institute, priority 2002, dated 2015):

How the values were obtained:
sAPP secretion = details: control and AD fibroblasts; cited from earlier work
sAPPα secretion = sAPPα secretion in cultured human skin fibroblasts (immunoblot, antibody 6E10); type: cell-based; details: staurosporin together with bryostatin
Procedure: Cultured skin fibroblasts were obtained from the Coriell Cell Repositories and grown using the general guidelines established for their culture with slight modifications (Cristofalo & Carptentier, 1988; Hirashima et al., 1996). The culture medium in which cells were grown was Dulbecco's modified Eagle's medium (GIBCO) supplemented with 10% calf serum (Biofluids, Inc.). Fibroblasts from control cell lines (AC), cases AG07141 and AG06241, and a familial AD (FAD) case (AG06848) were utilized.
Cells grown to confluence in 6 cm Petri dishes for 5-7 days. On the day of the experiment, medium was replaced with DMEM without serum and left undisturbed for 2 h. Upon completion of the 2 hour serum deprivation, treatment was achieved by direct application to the medium of Bryo, BL and DMSO at the appropriate concentrations. DMSO was less than 1% in all cases. In most cases, medium was collected and processed after 3 hours of treatment for sAPP secretion. […]
The concentration of secreted APP was measured using conventional immunoblotting techniques, with minor modifications the protocol. […] The signal was then detected using enhanced chemiluminescence followed by exposure of Hyperfilm ECL (Amersham). The band intensities were quantitative by densitometry using a BioRad GS-800 calibrated scanning densitometer and Multianalyst software (BioRad).

CN[C@@H]1C[C@H]2O[C@@](C)([C@@H]1OC)n1c3ccccc3c3c4c(c5c6ccccc6n2c5c31)C(=O)NC4 [staurosporine]
effect of PKC inhibitor on the benzolactam effect (sAPP secretion): eliminated the effects of benzolactam | effect of PKC inhibitor on bryostatin-induced sAPP secretion (sAPPα secretion): completely prevents the effect of bryostatin on sAPP secretion
